The values that follow come from patent publication US20240366775A1 (PEPTIDREAM INC., priority 2021, published 2024).

The data set in a line: general procedure: Fmoc solid-phase peptide synthesis; Sieber Amide Resin; DIPCI/Oxyma Pure; HATU/DIEA. Conditions: whole synthesis, UV 225 nm.

As for 894_3m_GGRGRS_K(Mal), the “final purity (method not given)” value was found to be 95.4%.
